Among the data in publication PMC7819943, “Rice protein-binding microarrays: a tool to detect cis-acting elements near promoter regions in rice” are binding signal values, retold here.

Chains of the proteins cited; added tags and fusions are not shown.
UniProt Q0JBA9, entry or part of it: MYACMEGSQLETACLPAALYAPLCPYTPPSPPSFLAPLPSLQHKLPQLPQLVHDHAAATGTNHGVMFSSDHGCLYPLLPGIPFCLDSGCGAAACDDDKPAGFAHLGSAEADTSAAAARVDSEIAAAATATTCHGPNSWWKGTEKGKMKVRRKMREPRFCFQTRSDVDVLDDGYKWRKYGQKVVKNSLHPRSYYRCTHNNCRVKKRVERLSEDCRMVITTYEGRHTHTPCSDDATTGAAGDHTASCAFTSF

This is one part of the list.

The assay has as its target OsWRKY34 (Oryza sativa, UniProt Q0JBA9 1-250). The assay is described as follows: protein-binding microarray (RPBM); PBS, 2% BSA, 51.3 ng/ul salmon testes DNA, 50 uM zinc acetate, 200 nM TF, 25 C, 1 h; high values mean tight binding. The following applies: protein: recombinant; tags: N-terminal polyhistidine and DsRed monomer fusion (pET32a); label: CyDye5-dUTP incorporated in the synthesized complementary strand; 3' TTTTT single-stranded linker to array surface; dsDNA, one strand shown. Put shortly: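 The binding signal is fluorescence intensity per array feature (arbitrary units). Readings came from an Axon 4000B scanner after a washed, 2% BSA-blocked, double-stranded custom Agilent array had been incubated for 1 h at 25 °C with 200 nM protein and 50 µM zinc acetate. The protein was a Ni–NTA-purified transcription factor fused N-terminally to polyhistidine and DsRed, expressed in E. coli BL21-CodonPlus.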
For the sequence “GTAATTCTGTGTTGGTTCTTACATTCTGTCTTCTTTGAAACGGAGTCACCTAGTGCAG”, the binding signal is 12300 fluorescence intensity (a.u.). Take “TTACAGTCGGACTGTGCAATTGTTTTTTTTCTCGTCCACACGGAGTCACCTAGTGCAG”: the binding signal is 10700 fluorescence intensity (a.u.). As for “CTACACACATAAACTTCTATTTTTTTCATCACATTGTTCTCGGAGTCACCTAGTGCAG”, the binding signal is 9210 fluorescence intensity (a.u.).

“ATCTTATTAATTAATTCTTTGTGTTTCATATTATTCTAATCGGAGTCACCTAGTGCAG”: the binding signal is 10300 fluorescence intensity (a.u.).

As for “GCCACTAATTATCTCATCATGTCACCAAGTTAAGTAGGTTCGGAGTCACCTAGTGCAG”, the binding signal is 8330 fluorescence intensity (a.u.). In the case of “CAATGGTGTCATATATTATCGGCGGTACTATGTTCTATTTCGGAGTCACCTAGTGCAG”, the binding signal is 11000 fluorescence intensity (a.u.). Regarding “ATCGTTTCGCTTAGCTTTTCTTTCTTCTTCGTCGTCTCGGCGGAGTCACCTAGTGCAG”, the binding signal is 10700 fluorescence intensity (a.u.). As to “ATTGCAGCTCCTGGATTCTACGCCCAGTGCAGACCAACACCGGAGTCACCTAGTGCAG”, the binding signal was 8240 fluorescence intensity (a.u.).

Regarding “TTGAGCGCAATTTTTTTTTTTTTGTGTGTGTGTTGTTGGTCGGAGTCACCTAGTGCAG”, the binding signal is 8270 fluorescence intensity (a.u.).

As for “GCCTCGCCTTCTTATTCTGGCTCATCTGCAAGCTGCAGCTCGGAGTCACCTAGTGCAG”, the binding signal is 12400 fluorescence intensity (a.u.).

Turning to “ACTCGCACTTTATATTTCTCCAAATTCCACATTCAAATTTCGGAGTCACCTAGTGCAG”, the binding signal is 8480 fluorescence intensity (a.u.). In the case of “ATTTAATTTGTCAGCCACACCATCAGTTCTAAATTATTTTCGGAGTCACCTAGTGCAG”, the binding signal is 8060 fluorescence intensity (a.u.). For the sequence “GCGCCTTTCTATGCCTCTCTATCACCTTTTGGTCATTCGGCGGAGTCACCTAGTGCAG”, the binding signal is 8590 fluorescence intensity (a.u.). On to “CTGCTCAGCGAAAGTACGTACCTACGAGTATCACGTTCTCCGGAGTCACCTAGTGCAG”, for which the binding signal is 8160 fluorescence intensity (a.u.). The value for “TACTGCCATTTTTTCAGTTTTCACACCTACTTCTATTCCTCGGAGTCACCTAGTGCAG” was 10700 fluorescence intensity (a.u.). For “GCTTTCCATGATTCCCCGGAGTTAAGTCATTGTCACAAGTCGGAGTCACCTAGTGCAG”, the binding signal was 10100 fluorescence intensity (a.u.). For “CCTCACACTCTGGCACACCTTCTTCCTTTTCTTCACTTGCCGGAGTCACCTAGTGCAG”, the binding signal was 12900 fluorescence intensity (a.u.). The value for “ACACAGACGACGCAGCATCAGCAACACACACACACACCGACGGAGTCACCTAGTGCAG” was 8220 fluorescence intensity (a.u.); that for “AGATCCAATGACGCGACGCCGCAACCGAAATGGATTCATCCGGAGTCACCTAGTGCAG” was 8360 fluorescence intensity (a.u.). With “AGTTTTGCTATTATGCCACCGCCGCCACGCTTTTGCTGATCGGAGTCACCTAGTGCAG”, the binding signal is 9500 fluorescence intensity (a.u.). With “GTGAGGGCTAGGGTTGGCAACCCCATCTTGGCATATGCTTCGGAGTCACCTAGTGCAG”, the binding signal was 9170 fluorescence intensity (a.u.). For “GAAACACCGGAGGGAGGGTGGGCGACGAGGAGGAGGAAAACGGAGTCACCTAGTGCAG”, the binding signal was 8440 fluorescence intensity (a.u.). As to “AATCCGACCTGCTGGATCCGCACTGTATTTTTTTTCACCTCGGAGTCACCTAGTGCAG”, the binding signal was 10200 fluorescence intensity (a.u.). The value for “CTTTTATTTCCTATCTTGCATTTCCCATCTCCATCCTCCCCGGAGTCACCTAGTGCAG” was 8090 fluorescence intensity (a.u.). For “TGCATGTAGCATTAGGGGTTGGTTTGTTTTGAGGCCTATACGGAGTCACCTAGTGCAG”, the binding signal was 11400 fluorescence intensity (a.u.). The figure for “GACAATCCCCGATCCGATCGCCGCGCTCCTCTCCTCTACCCGGAGTCACCTAGTGCAG” is 8280 fluorescence intensity (a.u.); for “TGGCTTTGTTGAGTGTAGGTAAGGATGAACTTGATTGCGACGGAGTCACCTAGTGCAG” it is 8440 fluorescence intensity (a.u.); for “TATCCCTCTGTTGGTAGTTATTTTTATTGTTGCACTTATCCGGAGTCACCTAGTGCAG” it is 8570 fluorescence intensity (a.u.). “CTAATACTTAATTAATCATGCGTTAATTCATTGTTCTGTTCGGAGTCACCTAGTGCAG”: the binding signal is 8830 fluorescence intensity (a.u.).

As to “TGGAGTTGATTTGAGGTTTTTTTATCGAAATTTATTTTTTCGGAGTCACCTAGTGCAG”, the binding signal is 10500 fluorescence intensity (a.u.). For “TAATATTTGGTCCCACCTGTCATACACACGTTATGTCTTGCGGAGTCACCTAGTGCAG”, the binding signal is 8050 fluorescence intensity (a.u.). For the sequence “ACAATCCGGTTGTTGTGGTCTATCGCTTACCAACTCCAAACGGAGTCACCTAGTGCAG”, the binding signal is 8720 fluorescence intensity (a.u.). As to “TTCGTCATCTCGCTGCAGCGGAGCCGCTCCGCGTCGCCGTCGGAGTCACCTAGTGCAG”, the binding signal was 8730 fluorescence intensity (a.u.). On to “TTGTGGTCCTGTCGTCATCCTGTGGAGTTGTGGTGAGTGTCGGAGTCACCTAGTGCAG”, for which the binding signal is 9740 fluorescence intensity (a.u.).

For “TCTGTAGTATTTTTTTACCCTGTTTTTAGCTGCATTCTGCCGGAGTCACCTAGTGCAG”, the binding signal is 9110 fluorescence intensity (a.u.).

In the case of “TTGTAACCACTCATCCATCCTACTCCTTCTAACCAAACAACGGAGTCACCTAGTGCAG”, the binding signal is 8600 fluorescence intensity (a.u.).

“CCTCTTCGAACTTTGTGCTTGACTGTATTAGTGGAAGAGTCGGAGTCACCTAGTGCAG”: the binding signal is 8360 fluorescence intensity (a.u.). For the sequence “ATGCATATACGACGTTCGAGTTCCTTGTTCCTTGTAAACACGGAGTCACCTAGTGCAG”, the binding signal is 8710 fluorescence intensity (a.u.). Consider “TTAGTTTATCCACTATCATCACCCTATCCACTTCACTTTTCGGAGTCACCTAGTGCAG”, for which the binding signal was 11100 fluorescence intensity (a.u.). With “ACATGTATTTTTTTCCCTAACTCTTCTGCAATACTTTACTCGGAGTCACCTAGTGCAG”, the binding signal is 8350 fluorescence intensity (a.u.). For the sequence “CATTGGATCATACATCAAGATTTACATTCCTTTATACCTACGGAGTCACCTAGTGCAG”, the binding signal was 13900 fluorescence intensity (a.u.).

With “CATGCATCATTATACTAGTCGTCGTCATATAAATAGCGGACGGAGTCACCTAGTGCAG”, the binding signal was 8380 fluorescence intensity (a.u.).
